In US4701465A, “N-acylpyrrolidine derivative and synthesis and use thereof” (Suntory Limited, priority 1985, dated 1987):

Tested on: experimental amnesia caused in rats by scopolamine
Test: Preventive effect against experimental amnesia caused in rats by scopolamine (passive avoidance learning, intraperitoneal administration)
Format: in vivo, Wister male rats
Conditions: 1 mg/kg i.p. one hour before learning
Description: Several of the anti-prolyl endopeptidase compounds of the present invention were checked for their ability to prevent the inhibition of long-term memory fixation by scopolamine. Solutions of physiological saline that contained selected compounds of the present inventions in an amount of 1 mg/kg were administered intraperitoneally to Wister male rats (100-120 g). One hour after the administration, electric shocks were applied to the rats so that they would acquire passive avoidance learning. Immediately thereafter, scopolamine was administered intraperitoneally to each rat in an amount of 3 mg per kg of body weight.
The result of the test was assessed both 24 hours and 48 hours after the administration of scopolamine. The number of amnesic rats and of sound rats was counted for both the control group (rats which were not given the test compounds but to which scopolamine and physiological saline alone were administered intraperitoneally) and the treated group (rats to which both the test compound and scopolamine were administered).

| Structure (SMILES) | Learning: Initial avoidance time [s] | Learning: No. of avoidances during learning | Learning: Total learning time [s] |
| --- | --- | --- | --- |
| COc1ccc(/C=C/C(=O)N2CCCC2C=O)cc1 (stereo not drawn) [SUAM1054] | 2.0 | 1.9 | 110.0 |
| O=CC1CCCN1C(=O)CCC(=O)c1ccccc1 (stereo not drawn) [SUAM1055] | 3.5 | 1.7 | 110.0 |
| COc1ccc(CCCC(=O)N2CCCC2C=O)cc1 (stereo not drawn) [SUAM1051] | 3.1 | 2.0 | 110.0 |
| COc1ccc(CCC(=O)N2CCCC2C=O)cc1 (stereo not drawn) [SUAM1050] | 2.6 | 2.5 | 110.0 |
| O=CC1CCCN1C(=O)CCC(c1ccccc1)c1ccccc1 (stereo not drawn) [SUAM1090] | 3.4 | 2.2 | 110.0 |
| CCC(C(=O)N1CCCC1C=O)c1ccccc1 (stereo not drawn) [SUAM1066] | 3.7 | 1.5 | 110.0 |
| O=CC1CCCN1C(=O)CC(c1ccccc1)c1ccccc1 (stereo not drawn) [SUAM1065] | 2.9 | 2.0 | 110.0 |
| O=CC1CCCN1C(=O)Cc1ccc(Cl)cc1 (stereo not drawn) [SUAM1052] | 3.2 | 2.7 | 110.0 |
